Source: PubChem BioAssay AID743454 (Peter MacCallum Cancer Centre, 2014)
The whole screen tested about 18,000 reagents; below is a part drawn at random. In the full data, 450 (2.5%) were called active. 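Single biological run; no consistent viability z cut-off exists, so the class columns, not z-scores, define the calls.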 Reagent sequences are not shown.

- Assay: 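Knock-downs lowering viability or raising caspase 3/7 activity in vorinostat-treated resistant cells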 (primary screen)
- Cells: human HCT116-VR colon cancer cells, selected for vorinostat resistance
- Reagents: siRNA pool against human genes, 40 nM siRNA pool
- Time to read-out: vorinostat for 24 h, read-out about 72 h after transfection
- Treatment: vorinostat at 2.5 µM final
- Measured: 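Two measures, CellTiter-Fluor viability and luminescent caspase 3/7 activity, each as fold change against same-plate mock wells, mean of duplicates, then screen-wide robust z-score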
- Scale: viability robust z-score: higher = more viable cells than screen typical; caspase robust z-score: higher = more caspase 3/7 activity than screen typical
- Rule for the call: 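Hits are knock-downs in viability class RV1/RV2 or caspase class CA1/CA2, excluding ones that killed cells in the no-drug cell-count arm; hits then retested with single siRNAs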

Knock-down of ZNF250 came out at: viability hit class no change; caspase hit class no change; viability robust z-score 0.39; caspase robust z-score 0.16; inactive.
RPL23 showed viability hit class no change; caspase hit class no change; viability robust z-score -5.96; caspase robust z-score -1.02; inactive.
After knock-down of TUBGCP5 the results were viability hit class no change; caspase hit class no change; viability robust z-score -1.9; caspase robust z-score 2.16; inactive.
For PRORSD1P the deposit lists viability hit class no change; caspase hit class no change; viability robust z-score 1.09; caspase robust z-score 1.66; inactive.
ATG13 scored viability hit class no change; caspase hit class no change; viability robust z-score -0.07; caspase robust z-score 0.26; inactive.
With knock-down of CDK14, the record shows viability hit class no change; caspase hit class CA2 (caspase activation); viability robust z-score -1.43; caspase robust z-score 6.47; active.
Depletion of PVALB came out at: viability hit class no change; caspase hit class no change; viability robust z-score -3.02; caspase robust z-score 0.62; inactive.
IRF9 gave viability hit class no change; caspase hit class no change; viability robust z-score -1.38; caspase robust z-score 0.06; inactive.
Knock-down of NENF gave: viability hit class no change; caspase hit class no change; viability robust z-score -0.28; caspase robust z-score 0.68; inactive.
After knock-down of CASP8AP2, the record shows viability hit class no change; caspase hit class no change; viability robust z-score -1.92; caspase robust z-score 3.61; inactive.
GLB1L3 gave viability hit class no change; caspase hit class no change; viability robust z-score 0.26; caspase robust z-score -0.92; inactive.
With knock-down of SRGAP1, the record shows viability hit class no change; caspase hit class no change; viability robust z-score 0.12; caspase robust z-score 0.11; inactive.
DACT2 scored viability hit class no change; caspase hit class no change; viability robust z-score 0.19; caspase robust z-score 0.17; inactive.
Knock-down of RNF141 came out at: viability hit class no change; caspase hit class no change; viability robust z-score -0.54; caspase robust z-score -0.32; inactive.
FAM13B scored viability hit class no change; caspase hit class no change; viability robust z-score 1.49; caspase robust z-score 0.11; inactive.
Depletion of GALT gave: viability hit class no change; caspase hit class no change; viability robust z-score -1.39; caspase robust z-score -0.11; inactive.
Knock-down of SUPT7L resulted in: viability hit class no change; caspase hit class no change; viability robust z-score 0.23; caspase robust z-score -1.01; inactive.
MR1 scored viability hit class no change; caspase hit class no change; viability robust z-score 0.64; caspase robust z-score -0.1; inactive.
Silencing of GPRIN3 gave: viability hit class no change; caspase hit class CA2 (caspase activation); viability robust z-score -1; caspase robust z-score 6.25; active.
After knock-down of MALT1 the results were viability hit class no change; caspase hit class no change; viability robust z-score 0.86; caspase robust z-score 1.09; inactive.
With knock-down of VLDLR the results were viability hit class no change; caspase hit class no change; viability robust z-score 1.25; caspase robust z-score 0.17; inactive.

Reformatted: entries from further up
FAM13B
- viability hit class: no change
- caspase hit class: no change
- viability robust z-score: 1.49
- caspase robust z-score: 0.11
- Call: inactive

GALT
- viability hit class: no change
- caspase hit class: no change
- viability robust z-score: -1.39
- caspase robust z-score: -0.11
- Call: inactive

SUPT7L
- viability hit class: no change
- caspase hit class: no change
- viability robust z-score: 0.23
- caspase robust z-score: -1.01
- Call: inactive
